These are yes or no findings as the source states them, for the method shown. For part of these data: In cells and extracts the contact can be indirect. Some results given as binding are weak or reduced against the parent protein; the word gives no strength. Tags and fused reporters may be left off the sequences shown.
How the values were obtained:
[1] = molecular target: T1, TAP-Upf1-FL-G243R (S. cerevisiae) (UniProt P30771); assay: co-IP; TAP-tagged Upf1 purified from S. cerevisiae lysate on IgG-magnetic beads, 1 h at 4°C; Nmd4-HA detected by anti-HA immunoblot
T1 sequence: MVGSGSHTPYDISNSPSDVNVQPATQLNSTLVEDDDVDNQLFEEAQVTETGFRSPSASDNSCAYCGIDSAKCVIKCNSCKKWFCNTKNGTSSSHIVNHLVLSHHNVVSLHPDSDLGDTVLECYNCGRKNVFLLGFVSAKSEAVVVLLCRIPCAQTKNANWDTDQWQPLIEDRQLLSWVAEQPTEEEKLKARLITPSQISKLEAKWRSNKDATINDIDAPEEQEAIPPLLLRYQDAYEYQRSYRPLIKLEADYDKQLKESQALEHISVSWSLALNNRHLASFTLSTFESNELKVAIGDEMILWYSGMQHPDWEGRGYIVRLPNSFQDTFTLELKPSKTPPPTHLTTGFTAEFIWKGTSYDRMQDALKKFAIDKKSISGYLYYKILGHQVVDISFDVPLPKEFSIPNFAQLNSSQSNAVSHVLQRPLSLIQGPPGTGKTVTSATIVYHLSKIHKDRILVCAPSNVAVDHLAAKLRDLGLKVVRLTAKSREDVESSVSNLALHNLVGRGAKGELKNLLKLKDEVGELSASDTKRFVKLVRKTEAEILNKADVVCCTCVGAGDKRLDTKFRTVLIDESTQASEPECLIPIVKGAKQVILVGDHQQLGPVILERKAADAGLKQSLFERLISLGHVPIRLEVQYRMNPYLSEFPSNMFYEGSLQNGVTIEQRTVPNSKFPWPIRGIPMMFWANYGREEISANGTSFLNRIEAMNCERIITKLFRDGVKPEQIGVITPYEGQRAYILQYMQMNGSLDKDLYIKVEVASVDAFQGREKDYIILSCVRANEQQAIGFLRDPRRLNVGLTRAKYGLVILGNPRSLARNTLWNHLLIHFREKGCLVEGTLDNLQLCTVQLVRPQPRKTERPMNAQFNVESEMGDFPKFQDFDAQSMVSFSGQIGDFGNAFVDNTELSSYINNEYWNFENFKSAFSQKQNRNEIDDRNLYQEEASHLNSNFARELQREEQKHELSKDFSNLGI

[2] = molecular target: T2, TAP-Upf1-FL (S. cerevisiae, N-terminal TAP tag, from plasmid) (S. cerevisiae) (UniProt P30771); assay: as above
T2 sequence: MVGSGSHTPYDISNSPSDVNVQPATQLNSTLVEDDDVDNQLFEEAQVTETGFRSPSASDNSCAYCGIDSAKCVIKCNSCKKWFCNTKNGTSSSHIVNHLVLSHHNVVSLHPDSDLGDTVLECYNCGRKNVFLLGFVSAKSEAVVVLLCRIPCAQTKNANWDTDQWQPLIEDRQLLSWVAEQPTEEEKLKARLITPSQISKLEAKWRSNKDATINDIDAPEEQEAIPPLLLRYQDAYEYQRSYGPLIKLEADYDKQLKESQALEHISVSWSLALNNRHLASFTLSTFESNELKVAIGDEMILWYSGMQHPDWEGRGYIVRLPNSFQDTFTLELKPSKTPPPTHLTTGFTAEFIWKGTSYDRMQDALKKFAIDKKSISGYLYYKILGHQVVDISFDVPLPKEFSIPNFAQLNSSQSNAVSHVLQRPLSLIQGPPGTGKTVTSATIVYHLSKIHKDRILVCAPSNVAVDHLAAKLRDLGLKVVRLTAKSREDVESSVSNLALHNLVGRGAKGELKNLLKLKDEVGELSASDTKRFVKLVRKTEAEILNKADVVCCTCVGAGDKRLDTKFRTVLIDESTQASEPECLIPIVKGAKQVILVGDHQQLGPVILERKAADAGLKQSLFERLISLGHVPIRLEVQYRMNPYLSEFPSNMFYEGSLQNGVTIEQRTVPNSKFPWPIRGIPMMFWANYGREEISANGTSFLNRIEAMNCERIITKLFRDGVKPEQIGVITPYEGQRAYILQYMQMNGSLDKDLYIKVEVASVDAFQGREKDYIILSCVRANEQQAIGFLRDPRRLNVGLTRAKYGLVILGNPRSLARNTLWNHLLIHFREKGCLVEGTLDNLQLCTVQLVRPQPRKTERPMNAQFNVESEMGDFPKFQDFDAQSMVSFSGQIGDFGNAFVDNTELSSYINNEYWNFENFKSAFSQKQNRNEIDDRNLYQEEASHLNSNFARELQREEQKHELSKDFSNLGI

[3] = molecular target: T3, Upf1-FL-TAP (S. cerevisiae) (S. cerevisiae) (UniProt P30771); assay: as above
T3 sequence: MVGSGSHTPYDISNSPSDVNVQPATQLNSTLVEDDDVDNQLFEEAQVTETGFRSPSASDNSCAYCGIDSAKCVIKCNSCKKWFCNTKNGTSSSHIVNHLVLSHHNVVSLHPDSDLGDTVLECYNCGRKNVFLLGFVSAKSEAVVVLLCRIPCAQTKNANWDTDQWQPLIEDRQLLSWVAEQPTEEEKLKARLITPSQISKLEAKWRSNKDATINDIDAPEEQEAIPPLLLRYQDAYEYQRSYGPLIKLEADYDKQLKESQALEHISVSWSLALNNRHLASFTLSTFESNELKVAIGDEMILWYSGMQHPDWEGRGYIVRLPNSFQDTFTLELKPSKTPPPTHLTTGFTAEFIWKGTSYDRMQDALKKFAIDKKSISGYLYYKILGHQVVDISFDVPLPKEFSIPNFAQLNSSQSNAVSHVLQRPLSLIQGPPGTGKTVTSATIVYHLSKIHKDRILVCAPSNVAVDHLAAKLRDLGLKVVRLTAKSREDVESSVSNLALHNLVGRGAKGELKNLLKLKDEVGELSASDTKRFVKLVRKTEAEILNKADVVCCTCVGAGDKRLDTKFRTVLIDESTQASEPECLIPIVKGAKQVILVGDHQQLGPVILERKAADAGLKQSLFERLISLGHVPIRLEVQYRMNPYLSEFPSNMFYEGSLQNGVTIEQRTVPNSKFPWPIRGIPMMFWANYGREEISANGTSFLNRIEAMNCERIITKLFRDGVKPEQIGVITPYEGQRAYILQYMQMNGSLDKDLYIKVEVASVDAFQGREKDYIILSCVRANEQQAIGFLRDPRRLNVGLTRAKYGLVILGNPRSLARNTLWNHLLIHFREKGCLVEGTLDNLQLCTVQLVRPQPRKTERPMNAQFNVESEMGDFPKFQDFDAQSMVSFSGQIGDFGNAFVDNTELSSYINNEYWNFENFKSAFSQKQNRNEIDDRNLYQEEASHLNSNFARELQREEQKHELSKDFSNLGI

[4] = molecular target: T4, TAP-Upf1-FL-G377R (S. cerevisiae) (UniProt P30771); assay: as above
T4 sequence: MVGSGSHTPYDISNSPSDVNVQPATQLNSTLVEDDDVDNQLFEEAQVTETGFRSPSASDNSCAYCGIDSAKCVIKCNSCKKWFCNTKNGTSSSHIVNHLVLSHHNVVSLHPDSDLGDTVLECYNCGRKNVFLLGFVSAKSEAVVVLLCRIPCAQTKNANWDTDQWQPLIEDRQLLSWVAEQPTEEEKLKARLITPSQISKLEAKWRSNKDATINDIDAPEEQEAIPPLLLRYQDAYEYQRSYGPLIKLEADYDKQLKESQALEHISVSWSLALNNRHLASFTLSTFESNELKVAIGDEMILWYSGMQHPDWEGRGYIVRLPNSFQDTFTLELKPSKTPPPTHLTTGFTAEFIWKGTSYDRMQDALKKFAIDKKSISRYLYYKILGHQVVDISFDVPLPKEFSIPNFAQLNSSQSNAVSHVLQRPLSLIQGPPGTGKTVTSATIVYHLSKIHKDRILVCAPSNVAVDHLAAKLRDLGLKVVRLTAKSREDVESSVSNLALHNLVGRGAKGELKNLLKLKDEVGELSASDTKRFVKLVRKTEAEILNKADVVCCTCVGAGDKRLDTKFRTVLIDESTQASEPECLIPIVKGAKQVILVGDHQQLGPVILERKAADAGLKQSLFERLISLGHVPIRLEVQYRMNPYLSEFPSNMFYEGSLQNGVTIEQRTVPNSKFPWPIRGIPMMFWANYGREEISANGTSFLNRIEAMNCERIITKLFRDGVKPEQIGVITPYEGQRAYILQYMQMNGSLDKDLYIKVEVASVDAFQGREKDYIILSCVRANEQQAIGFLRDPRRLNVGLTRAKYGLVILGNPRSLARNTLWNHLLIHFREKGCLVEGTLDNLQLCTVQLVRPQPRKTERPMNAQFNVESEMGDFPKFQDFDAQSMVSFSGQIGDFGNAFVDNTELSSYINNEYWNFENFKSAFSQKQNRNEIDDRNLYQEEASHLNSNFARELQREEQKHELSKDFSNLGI

[5] = molecular target: T5, His6-ZZ-Nmd4 PIN domain (residues 1 to 167) (S. cerevisiae) (UniProt Q12129); assay: pull-down; His-pull-down: 0.5 nmol His6-ZZ-Nmd4 proteins with 0.5 nmol untagged Upf1-HD proteins, HisPur Ni-NTA magnetic beads; 20 mM Tris-HCl pH 7.5, 150 mM NaCl, 50 mM imidazole, 10% glycerol; 4°C; Coomassie; both purified
T5 sequence: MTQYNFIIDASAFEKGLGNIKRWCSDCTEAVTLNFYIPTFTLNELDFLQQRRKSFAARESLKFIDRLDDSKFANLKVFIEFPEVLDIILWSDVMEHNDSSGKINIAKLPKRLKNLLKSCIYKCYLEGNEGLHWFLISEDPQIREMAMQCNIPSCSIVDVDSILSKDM

[6] = molecular target: T6, Upf1-HD-His6 (S. cerevisiae Upf1 helicase domain, residues 221 to 851) (S. cerevisiae) (UniProt P30771); assay: condition: 330 μM Nmd4 PIN injected into 30 to 35 μM Upf1-HD-His6; ITC; His6-ZZ-Nmd4 proteins (260 μM full-length and « arm », 330 μM PIN) or His6-ZZ (277 μM) injected into Upf1-HD-His6 (30 to 35 μM); 20°C; 100 mM Bis-Tris pH 6.5, 200 mM NaCl, 5 mM MgCl2, 5 mM 2-mercaptoethanol; one-binding-site model; both purified
T6 sequence: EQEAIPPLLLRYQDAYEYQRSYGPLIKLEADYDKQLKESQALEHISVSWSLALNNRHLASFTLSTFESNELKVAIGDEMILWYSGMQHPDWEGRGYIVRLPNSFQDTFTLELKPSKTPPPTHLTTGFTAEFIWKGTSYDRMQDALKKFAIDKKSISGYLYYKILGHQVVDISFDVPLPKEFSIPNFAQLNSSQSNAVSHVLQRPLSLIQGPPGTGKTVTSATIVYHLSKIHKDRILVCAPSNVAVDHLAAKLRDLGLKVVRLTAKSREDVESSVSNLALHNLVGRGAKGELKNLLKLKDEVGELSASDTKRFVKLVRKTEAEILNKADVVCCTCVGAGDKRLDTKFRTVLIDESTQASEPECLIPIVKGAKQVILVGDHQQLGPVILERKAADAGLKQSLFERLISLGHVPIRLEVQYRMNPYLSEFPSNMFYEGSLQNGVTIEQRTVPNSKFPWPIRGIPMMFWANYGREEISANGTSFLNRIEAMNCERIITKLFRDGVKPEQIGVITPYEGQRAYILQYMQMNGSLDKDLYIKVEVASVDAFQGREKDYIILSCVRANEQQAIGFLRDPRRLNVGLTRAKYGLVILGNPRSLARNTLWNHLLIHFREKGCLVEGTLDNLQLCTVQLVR

B1: His6-ZZ-Nmd4 full-length protein (S. cerevisiae) (natural protein, UniProt Q12129 1-218, looked up)
chain: MTQYNFIIDASAFEKGLGNIKRWCSDCTEAVTLNFYIPTFTLNELDFLQQRRKSFAARESLKFIDRLDDSKFANLKVFIEFPEVLDIILWSDVMEHNDSSGKINIAKLPKRLKNLLKSCIYKCYLEGNEGLHWFLISEDPQIREMAMQCNIPSCSIVDVDSILSKDMNDKSFRESEKFNNMMLKNGTKEESENGREIIRTNFNKTVYASRGTGELWSP
notes: also called His6-ZZ-Nmd4 FL; full-length Nmd4; source: E. coli BL21 (DE3) Gold, purified (Ni-NTA, HiTrap Heparin, S75 SEC); not shown: His6, N-terminal, kept; ZZ (tandem Z-domain of S. aureus protein A), N-terminal, kept
Question: B1 was tested. Which binding [1] did it give?
Answer: binds weakly

Question: What about the binding [2] of the same binder?
Answer: binds

Question: What about the binding [3] of the same binder?
Answer: binds

Question: What about the binding [4] of the same binder?
Answer: binds weakly

B2: untagged Upf1-HD wild-type (S. cerevisiae Upf1 residues 221 to 851) (domain or fragment, UniProt P30771 221-851)
chain: EQEAIPPLLLRYQDAYEYQRSYGPLIKLEADYDKQLKESQALEHISVSWSLALNNRHLASFTLSTFESNELKVAIGDEMILWYSGMQHPDWEGRGYIVRLPNSFQDTFTLELKPSKTPPPTHLTTGFTAEFIWKGTSYDRMQDALKKFAIDKKSISGYLYYKILGHQVVDISFDVPLPKEFSIPNFAQLNSSQSNAVSHVLQRPLSLIQGPPGTGKTVTSATIVYHLSKIHKDRILVCAPSNVAVDHLAAKLRDLGLKVVRLTAKSREDVESSVSNLALHNLVGRGAKGELKNLLKLKDEVGELSASDTKRFVKLVRKTEAEILNKADVVCCTCVGAGDKRLDTKFRTVLIDESTQASEPECLIPIVKGAKQVILVGDHQQLGPVILERKAADAGLKQSLFERLISLGHVPIRLEVQYRMNPYLSEFPSNMFYEGSLQNGVTIEQRTVPNSKFPWPIRGIPMMFWANYGREEISANGTSFLNRIEAMNCERIITKLFRDGVKPEQIGVITPYEGQRAYILQYMQMNGSLDKDLYIKVEVASVDAFQGREKDYIILSCVRANEQQAIGFLRDPRRLNVGLTRAKYGLVILGNPRSLARNTLWNHLLIHFREKGCLVEGTLDNLQLCTVQLVR
Question: Which binding [5] does the source give for B2 here?
Answer: no binding (tested: 0.5 nmol of each protein in 60 μL)

B3: His6-ZZ-Nmd4 PIN domain (residues 1 to 167) (domain or fragment, UniProt Q12129 1-167)
chain: MTQYNFIIDASAFEKGLGNIKRWCSDCTEAVTLNFYIPTFTLNELDFLQQRRKSFAARESLKFIDRLDDSKFANLKVFIEFPEVLDIILWSDVMEHNDSSGKINIAKLPKRLKNLLKSCIYKCYLEGNEGLHWFLISEDPQIREMAMQCNIPSCSIVDVDSILSKDM
Question: How did the binding [6] turn out when B3 was run?
Answer: no binding

From PMC11463774, “Structure of the Nmd4-Upf1 complex supports conservation of the nonsense-mediated mRNA decay pathway between yeast and humans” (PLOS Biology, 2024)
